Results reported in patent US11169156B2, “Long wavelength voltage sensitive dyes” (The Regents of the University of California, priority 2015, dated 2021).
Entries after “also recorded” stand apart in the source; their conditions may differ.

Columns and labels:
[1] = system: HEK cells; assay: Epifluorescence imaging of dye staining and localization in HEK cells; format: cell-based, Human; conditions: HEK cells bathed in 1 μM dye, 631 nm illumination
[2] = system: rat hippocampal neurons; assay: Cross-excitation in hippocampal neurons loaded with dye; format: cell-based

Compound | cellular fluorescence / localization [1] | fluorescence on 390 nm excitation relative to 631 nm excitation ([2]; cellular membranes, 9.7 W/cm2, emission 680 nm) | fluorescence on 475 nm excitation relative to 631 nm excitation ([2]; stained cells, 9.7 W/cm^2, emission 680 nm)
CN(C)c1ccc2c(c1)[Si](C)(C)C1=CC(=[N+](C)C)C=CC1=C2c1ccccc1S(=O)(=O)[O-] [BR, 2-(7-(Dimethylamino)-3-(dimethyliminio)-5,5-dimethyl-3,5-dihydrodibenzo[b,e]silin-10-yl) benzenesulfonate] | negligible cytosolic fluorescence; also recorded: negligible cellular fluorescence |  | 
COc1cc(N(C)C)ccc1/C=C/c1ccc(/C=C/c2ccc(C3=C4C=CC(=[N+](C)C)C=C4[Si](C)(C)c4cc(N(C)C)ccc43)c(S(=O)(=O)[O-])c2)cc1 [BeRST 1, 5-((E)-4-((E)-4-(Dimethylamino)-2-methoxystyryl)styryl)-2-(7-(dimethylamino)-3-(dimethyliminio)-5,5-dimethyl-3,5-dihydrodibenzo[b,e]silin-10-yl)benzenesulfonate] | localizes to cell membranes; also recorded: Clear membrane staining | approximately 47% | approximately 4%
